PubChem BioAssay AID1259254 | NCATS – 2017
Aim: 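Genome-wide screen for genes that prevent DNA re-replication in cancer cells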 (primary screen). Cells: human HCT116 colorectal cancer cells. Reagent: single siRNA against human genes. Timing: 3 days. Detection: 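Imaged Hoechst DNA stain sorts each cell into a cycle phase by DNA amount; per plate, G2 fraction set to 0% for non-targeting and 100% for GMNN siRNA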. Direction: G2 robust z-score: higher = more G2 cells, more excess DNA replication. Active means: 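Active siRNAs have a G2 robust z of 5 or more median absolute deviations over the median, which in these data means about 38% or higher of GMNN control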.
The whole screen tested about 59,000 reagents; this is an unselected part. Of all reagents, about 1,550 (2.6%) were called active. 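G2 share is only a proxy for re-replication; each gene was hit by three separate siRNAs, and active genes were retested.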 Unmarked entries are inactive. Not all columns of the deposit are shown. Reagent sequences are not shown. The record does not give: the amount of reagent.

EMC6 (ER membrane protein complex subunit 6) [SID160735031] scored G2 robust z-score -0.715.
For EMC6 (ER membrane protein complex subunit 6) [SID160751136], the entry reads G2 robust z-score 0.845.
EMC6 (ER membrane protein complex subunit 6) [SID160751137] showed G2 robust z-score 0.252.
For NABP1 (nucleic acid binding protein 1) [SID160731742] the deposit lists G2 robust z-score -0.443.
NABP1 (nucleic acid binding protein 1) [SID160748094] gave G2 robust z-score -0.722.
Against NABP1 (nucleic acid binding protein 1) [SID160748095], the entry reads G2 robust z-score 3.63.

Quoted from the entries so far (2 entries):
EMC6 (ER membrane protein complex subunit 6) [SID160735031] — G2 robust z-score = -0.715
EMC6 (ER membrane protein complex subunit 6) [SID160751136] — G2 robust z-score = 0.845

The results go on:
Against BRIX1 (biogenesis of ribosomes BRX1) [SID160733599], the values are G2 robust z-score 2.25.
BRIX1 (biogenesis of ribosomes BRX1) [SID160743480] showed G2 robust z-score 0.43.
Knock-down of BRIX1 (biogenesis of ribosomes BRX1) [SID160743481] gave: G2 robust z-score 0.153.
Depletion of CYLD (CYLD lysine 63 deubiquitinase) [SID160772130] gave: G2 robust z-score 5.79 (active).
For CYLD (CYLD lysine 63 deubiquitinase) [SID160772219] the deposit lists G2 robust z-score -0.532.
With knock-down of CYLD (CYLD lysine 63 deubiquitinase) [SID160772290] the results were G2 robust z-score 0.131.
